Assay results as given in US20180118786A1, “NOVEL lNHIBITORS OF THE ENZYME ACTIVATED FACTOR XII (FXIIA)” (ECOLE POLYTECHNIQUE FEDERALE DE LAUSANNE (EPFL), priority 2015, published 2018).
No constants are given. Whether binding was seen depends on the method and setting. Some binding calls cover weakened binding; strength is not graded here.

Amino acid sequences for entries named in this document (tags omitted).
UniProt P07477: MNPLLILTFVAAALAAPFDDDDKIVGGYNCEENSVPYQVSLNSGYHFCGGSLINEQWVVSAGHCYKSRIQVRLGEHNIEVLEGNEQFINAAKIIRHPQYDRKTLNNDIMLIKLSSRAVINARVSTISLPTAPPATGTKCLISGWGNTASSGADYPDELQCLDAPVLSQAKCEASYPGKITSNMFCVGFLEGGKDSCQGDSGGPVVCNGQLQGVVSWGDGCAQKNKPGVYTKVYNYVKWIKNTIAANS

Target: trypsin (human) (UniProt P07477)
Experiment: protease inhibition assay (FIG. 4)

- binding: binds
B1: corn trypsin inhibitor (protein, UniProt P01088 29-155, looked up)
chain: SAGTSCVPGWAIPHNPLPSCRWYVTSRTCGIGPRLPWPELKRRCCRELADIPAYCRCTALSILMDGAIPPGPDAQLEGRLEDLPGCPREVQRGFAATLVTEAECNLATISGVAECPWILGGGTMPSK
